Data taken from the supplement of paper PMC10849652.
This is one part of the list.

Amino acid sequences for entries named in this document (tags omitted). A change or cut given only in a name is not applied to a line headed by its entry.
UniProt Q9H2P0: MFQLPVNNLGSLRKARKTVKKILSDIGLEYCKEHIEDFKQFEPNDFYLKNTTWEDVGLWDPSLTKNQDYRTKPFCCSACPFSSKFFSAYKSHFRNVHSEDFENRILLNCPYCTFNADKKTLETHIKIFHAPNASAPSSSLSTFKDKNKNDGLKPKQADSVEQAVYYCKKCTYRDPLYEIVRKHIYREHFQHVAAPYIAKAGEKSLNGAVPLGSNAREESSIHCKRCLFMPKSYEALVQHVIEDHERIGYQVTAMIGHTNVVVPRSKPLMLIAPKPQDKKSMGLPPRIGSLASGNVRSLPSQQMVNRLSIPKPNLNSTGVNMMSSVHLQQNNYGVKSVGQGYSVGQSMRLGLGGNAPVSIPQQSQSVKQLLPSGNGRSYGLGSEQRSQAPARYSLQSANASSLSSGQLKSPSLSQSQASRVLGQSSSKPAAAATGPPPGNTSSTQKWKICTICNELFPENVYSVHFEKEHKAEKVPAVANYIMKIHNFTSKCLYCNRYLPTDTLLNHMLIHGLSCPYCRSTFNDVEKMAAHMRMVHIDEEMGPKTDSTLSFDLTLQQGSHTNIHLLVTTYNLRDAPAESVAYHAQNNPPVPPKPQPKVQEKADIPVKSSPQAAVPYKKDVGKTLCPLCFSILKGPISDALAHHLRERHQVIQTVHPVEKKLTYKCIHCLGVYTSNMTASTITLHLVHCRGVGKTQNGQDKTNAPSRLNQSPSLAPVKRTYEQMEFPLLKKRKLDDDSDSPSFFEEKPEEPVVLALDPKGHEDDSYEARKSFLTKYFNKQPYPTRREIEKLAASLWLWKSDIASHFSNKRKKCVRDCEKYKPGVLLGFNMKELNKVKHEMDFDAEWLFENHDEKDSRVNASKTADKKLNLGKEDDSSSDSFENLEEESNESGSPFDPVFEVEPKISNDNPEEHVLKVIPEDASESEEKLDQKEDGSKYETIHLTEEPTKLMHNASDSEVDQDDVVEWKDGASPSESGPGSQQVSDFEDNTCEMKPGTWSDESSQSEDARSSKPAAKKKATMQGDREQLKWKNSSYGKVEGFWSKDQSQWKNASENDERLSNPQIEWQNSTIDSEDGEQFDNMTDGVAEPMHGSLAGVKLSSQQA
UniProt P13196: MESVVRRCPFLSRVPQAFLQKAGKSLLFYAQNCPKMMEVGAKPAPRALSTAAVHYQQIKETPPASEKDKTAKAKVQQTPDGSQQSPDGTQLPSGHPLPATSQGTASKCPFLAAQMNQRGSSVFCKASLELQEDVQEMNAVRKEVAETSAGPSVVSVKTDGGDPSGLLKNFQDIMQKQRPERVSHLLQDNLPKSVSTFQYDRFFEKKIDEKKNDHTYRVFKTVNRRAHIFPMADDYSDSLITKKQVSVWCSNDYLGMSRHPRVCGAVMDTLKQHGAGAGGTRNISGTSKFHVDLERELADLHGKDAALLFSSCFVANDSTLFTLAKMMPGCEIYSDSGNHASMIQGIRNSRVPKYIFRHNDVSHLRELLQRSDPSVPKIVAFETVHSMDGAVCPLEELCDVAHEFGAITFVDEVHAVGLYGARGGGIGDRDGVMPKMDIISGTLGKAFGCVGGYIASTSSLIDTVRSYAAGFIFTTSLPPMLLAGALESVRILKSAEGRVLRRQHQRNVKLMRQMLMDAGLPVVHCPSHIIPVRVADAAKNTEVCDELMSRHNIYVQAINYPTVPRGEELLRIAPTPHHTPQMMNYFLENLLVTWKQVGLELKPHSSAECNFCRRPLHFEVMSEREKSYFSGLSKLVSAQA
UniProt Q3LIE5: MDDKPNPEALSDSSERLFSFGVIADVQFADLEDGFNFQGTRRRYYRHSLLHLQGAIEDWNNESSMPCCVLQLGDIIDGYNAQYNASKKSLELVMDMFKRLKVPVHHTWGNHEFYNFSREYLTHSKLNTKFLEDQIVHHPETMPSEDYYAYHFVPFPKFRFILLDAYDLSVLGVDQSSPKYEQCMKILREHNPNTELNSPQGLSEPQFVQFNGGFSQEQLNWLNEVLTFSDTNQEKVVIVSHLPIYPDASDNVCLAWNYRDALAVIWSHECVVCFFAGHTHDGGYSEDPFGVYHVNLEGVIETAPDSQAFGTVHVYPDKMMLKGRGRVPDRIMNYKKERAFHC
UniProt P35612: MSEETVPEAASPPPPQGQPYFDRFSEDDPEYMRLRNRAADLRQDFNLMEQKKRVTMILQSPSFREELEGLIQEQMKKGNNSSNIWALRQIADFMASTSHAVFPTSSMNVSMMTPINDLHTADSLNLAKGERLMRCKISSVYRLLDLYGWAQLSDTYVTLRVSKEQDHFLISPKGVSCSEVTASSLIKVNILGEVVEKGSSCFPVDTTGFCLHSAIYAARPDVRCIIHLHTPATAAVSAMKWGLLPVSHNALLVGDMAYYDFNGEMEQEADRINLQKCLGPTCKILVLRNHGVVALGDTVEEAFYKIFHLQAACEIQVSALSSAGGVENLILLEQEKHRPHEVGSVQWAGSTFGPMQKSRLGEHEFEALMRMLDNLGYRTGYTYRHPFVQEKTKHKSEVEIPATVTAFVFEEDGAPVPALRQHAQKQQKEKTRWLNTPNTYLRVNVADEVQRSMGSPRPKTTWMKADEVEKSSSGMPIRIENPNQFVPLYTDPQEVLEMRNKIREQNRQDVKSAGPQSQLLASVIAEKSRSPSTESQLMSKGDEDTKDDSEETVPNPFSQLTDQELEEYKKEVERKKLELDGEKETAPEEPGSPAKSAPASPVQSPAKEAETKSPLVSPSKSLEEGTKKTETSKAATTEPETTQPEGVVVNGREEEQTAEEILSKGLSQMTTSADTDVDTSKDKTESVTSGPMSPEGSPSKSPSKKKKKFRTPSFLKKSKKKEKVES
UniProt Q96BT7: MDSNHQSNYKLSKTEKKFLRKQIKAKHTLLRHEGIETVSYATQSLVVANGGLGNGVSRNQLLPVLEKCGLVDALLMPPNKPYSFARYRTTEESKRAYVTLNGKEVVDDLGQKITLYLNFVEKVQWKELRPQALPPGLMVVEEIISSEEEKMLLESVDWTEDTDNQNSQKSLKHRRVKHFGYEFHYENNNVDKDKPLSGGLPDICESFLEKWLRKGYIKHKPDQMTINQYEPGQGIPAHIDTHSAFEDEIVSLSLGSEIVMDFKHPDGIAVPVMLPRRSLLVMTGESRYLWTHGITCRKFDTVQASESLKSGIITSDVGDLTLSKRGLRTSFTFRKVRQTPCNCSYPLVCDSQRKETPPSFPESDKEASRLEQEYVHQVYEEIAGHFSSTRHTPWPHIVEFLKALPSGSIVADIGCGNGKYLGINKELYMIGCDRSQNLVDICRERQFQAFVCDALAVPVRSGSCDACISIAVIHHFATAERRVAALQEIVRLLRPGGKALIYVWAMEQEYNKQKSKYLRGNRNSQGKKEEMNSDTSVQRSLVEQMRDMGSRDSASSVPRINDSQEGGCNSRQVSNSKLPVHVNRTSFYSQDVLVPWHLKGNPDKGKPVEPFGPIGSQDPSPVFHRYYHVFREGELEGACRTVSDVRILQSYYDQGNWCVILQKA
UniProt Q9Y672: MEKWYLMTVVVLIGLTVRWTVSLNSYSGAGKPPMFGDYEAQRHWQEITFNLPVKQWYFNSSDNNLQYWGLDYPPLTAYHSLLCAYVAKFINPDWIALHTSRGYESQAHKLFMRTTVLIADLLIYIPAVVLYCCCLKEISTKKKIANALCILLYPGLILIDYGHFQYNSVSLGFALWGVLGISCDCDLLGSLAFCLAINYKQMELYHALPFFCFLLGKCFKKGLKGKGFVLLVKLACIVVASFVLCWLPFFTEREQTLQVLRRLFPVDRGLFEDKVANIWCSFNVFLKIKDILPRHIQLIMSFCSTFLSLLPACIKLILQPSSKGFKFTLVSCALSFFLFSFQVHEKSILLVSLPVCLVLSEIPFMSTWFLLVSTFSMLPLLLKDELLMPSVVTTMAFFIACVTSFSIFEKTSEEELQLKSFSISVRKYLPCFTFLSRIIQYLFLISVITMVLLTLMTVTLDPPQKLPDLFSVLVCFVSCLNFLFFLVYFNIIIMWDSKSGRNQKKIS
UniProt P07327: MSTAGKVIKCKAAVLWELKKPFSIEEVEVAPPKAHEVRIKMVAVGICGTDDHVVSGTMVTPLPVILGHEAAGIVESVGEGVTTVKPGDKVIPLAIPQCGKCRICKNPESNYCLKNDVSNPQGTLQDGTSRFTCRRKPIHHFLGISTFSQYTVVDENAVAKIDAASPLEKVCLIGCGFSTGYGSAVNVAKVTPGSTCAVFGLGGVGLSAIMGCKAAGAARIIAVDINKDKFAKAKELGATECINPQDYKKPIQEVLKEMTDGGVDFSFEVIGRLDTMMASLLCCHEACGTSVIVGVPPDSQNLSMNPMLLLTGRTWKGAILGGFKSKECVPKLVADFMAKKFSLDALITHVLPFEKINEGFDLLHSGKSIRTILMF
UniProt Q86W34: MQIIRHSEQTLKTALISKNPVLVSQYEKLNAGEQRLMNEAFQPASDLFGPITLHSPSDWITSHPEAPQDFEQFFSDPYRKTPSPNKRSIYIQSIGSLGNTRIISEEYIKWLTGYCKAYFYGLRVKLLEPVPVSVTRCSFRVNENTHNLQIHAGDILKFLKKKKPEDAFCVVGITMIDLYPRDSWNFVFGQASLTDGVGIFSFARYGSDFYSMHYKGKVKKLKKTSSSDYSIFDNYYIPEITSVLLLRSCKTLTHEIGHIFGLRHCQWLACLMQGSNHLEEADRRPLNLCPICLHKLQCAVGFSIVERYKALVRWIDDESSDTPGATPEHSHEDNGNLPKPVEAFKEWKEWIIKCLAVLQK
UniProt P49189: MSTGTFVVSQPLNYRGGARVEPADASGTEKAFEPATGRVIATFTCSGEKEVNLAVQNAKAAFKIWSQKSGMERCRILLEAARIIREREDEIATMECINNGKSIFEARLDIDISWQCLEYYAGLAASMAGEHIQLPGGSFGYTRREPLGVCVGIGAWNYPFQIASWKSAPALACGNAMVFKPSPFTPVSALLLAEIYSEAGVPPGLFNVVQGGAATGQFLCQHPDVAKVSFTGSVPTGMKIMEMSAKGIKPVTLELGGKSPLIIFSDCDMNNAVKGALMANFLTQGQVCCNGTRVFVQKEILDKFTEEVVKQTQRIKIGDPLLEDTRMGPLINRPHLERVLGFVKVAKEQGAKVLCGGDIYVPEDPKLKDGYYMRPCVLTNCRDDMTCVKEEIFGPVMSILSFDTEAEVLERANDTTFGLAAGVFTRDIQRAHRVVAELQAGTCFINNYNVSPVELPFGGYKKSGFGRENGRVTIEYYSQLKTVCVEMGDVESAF
UniProt O75342: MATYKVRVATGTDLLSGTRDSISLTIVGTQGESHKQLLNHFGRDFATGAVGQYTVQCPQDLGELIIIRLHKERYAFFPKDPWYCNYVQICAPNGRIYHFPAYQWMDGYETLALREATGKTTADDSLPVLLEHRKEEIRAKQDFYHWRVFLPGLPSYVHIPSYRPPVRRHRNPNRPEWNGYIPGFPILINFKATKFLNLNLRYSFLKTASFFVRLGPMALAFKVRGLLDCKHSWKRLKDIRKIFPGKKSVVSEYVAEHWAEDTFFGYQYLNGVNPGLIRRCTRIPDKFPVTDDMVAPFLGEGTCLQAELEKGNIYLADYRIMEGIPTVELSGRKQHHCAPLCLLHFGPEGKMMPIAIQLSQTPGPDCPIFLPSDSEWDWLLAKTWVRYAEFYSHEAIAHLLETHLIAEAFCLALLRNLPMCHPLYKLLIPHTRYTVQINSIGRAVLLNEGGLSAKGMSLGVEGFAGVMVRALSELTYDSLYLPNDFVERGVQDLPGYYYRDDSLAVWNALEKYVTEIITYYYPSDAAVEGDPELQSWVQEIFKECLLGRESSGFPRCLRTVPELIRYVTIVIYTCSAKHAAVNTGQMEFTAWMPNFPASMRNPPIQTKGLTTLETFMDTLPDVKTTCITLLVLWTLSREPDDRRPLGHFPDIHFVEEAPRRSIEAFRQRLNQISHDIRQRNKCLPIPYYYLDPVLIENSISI
UniProt P05062: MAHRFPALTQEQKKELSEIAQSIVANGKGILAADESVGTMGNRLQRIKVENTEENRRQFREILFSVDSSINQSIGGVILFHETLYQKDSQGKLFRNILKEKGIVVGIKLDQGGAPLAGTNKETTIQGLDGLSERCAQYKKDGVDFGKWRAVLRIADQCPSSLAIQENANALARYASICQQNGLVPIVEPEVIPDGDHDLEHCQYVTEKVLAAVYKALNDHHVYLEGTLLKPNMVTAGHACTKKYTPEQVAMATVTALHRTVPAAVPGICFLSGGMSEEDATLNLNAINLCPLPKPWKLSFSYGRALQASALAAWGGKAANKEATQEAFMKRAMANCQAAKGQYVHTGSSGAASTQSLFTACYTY
UniProt Q96F25: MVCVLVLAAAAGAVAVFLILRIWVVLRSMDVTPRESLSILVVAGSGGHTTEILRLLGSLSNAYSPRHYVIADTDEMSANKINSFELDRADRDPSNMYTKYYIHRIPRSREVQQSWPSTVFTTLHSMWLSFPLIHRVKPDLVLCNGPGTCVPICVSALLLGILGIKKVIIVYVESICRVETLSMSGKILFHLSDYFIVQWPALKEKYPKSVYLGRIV

Columns and labels:
Experiment in all cases: log2 fold change, soluble protein after heating vs DMSO (PISA); higher = thermal stabilisation; K562 cells, 10 uM, 30 min; active = over 0.2 and 3.5 SD of the protein, either way, in both replicates (recomputed)
[1] = compound: CC1=C(C=C(C=C1)NC(=O)C2=CC(=CC=C2)C(C)(C)C#N)NC3=CC4=C(C=C3)N=CN(C4=O)C
How it was run: (§1)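 Soluble protein was quantified by TMTpro 16plex LC-MS/MS after channel sums were equalised. It was obtained as the supernatant after 21,000xg for 90 min from pooled aliquots of K562 cells (2×10^6 cells/mL, 10 μM compound, 30 min) heated for 3 min across 48°C-58°C and extracted in PBS with 0.5% NP-40 at 4°C. Thermal stability values are relative to control samples and come from duplicates. They are given as log2 fold changes.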

[2] = compound: CC1=C(C=C(C=C1)NC(=O)C2=CC(=CC=C2)N(C)C)NC(=O)C3=CC=C(C=C3)O
How it was run: as §1

[3] = compound: CC1=NC(=CC=C1)C2=C(N=C(N2)C(C)(C)C)C3=CC4=NC=CN=C4C=C3
How it was run: as §1

Nexturastat A = compound: CCCCN(Cc1ccc(C(=O)NO)cc1)C(=O)Nc1ccccc1 [Nexturastat A]
How it was run: as §1

vemurafenib = compound: CCCS(=O)(=O)Nc1ccc(F)c(C(=O)c2c[nH]c3ncc(-c4ccc(Cl)cc4)cc23)c1F [vemurafenib]
How it was run: as §1

[4] = compound: CCCc1cc(C)[nH]c(=O)c1CNC(=O)c1cc(-c2ccnc(N3CCN(C)CC3)c2)cc2c1cnn2C(C)C
How it was run: as §1

givinostat = compound: CCN(CC)Cc1ccc2cc(COC(=O)Nc3ccc(C(=O)NO)cc3)ccc2c1 [givinostat]
How it was run: as §1

barasertib = compound: CCN(CCCOc1ccc2c(Nc3cc(CC(=O)Nc4cccc(F)c4)[nH]n3)ncnc2c1)CCOP(=O)(O)O [barasertib]
How it was run: as §1

[5] = compound: CC[C@@H]1C(=O)N(C)c2cnc(Nc3ccc(C(=O)NC4CCN(C)CC4)cc3OC)nc2N1C1CCCC1
How it was run: as §1

epoxomicin = compound: CC[C@H](C)[C@@H](C(=O)N[C@@H]([C@@H](C)O)C(=O)N[C@@H](CC(C)C)C(=O)[C@]1(CO1)C)NC(=O)[C@H]([C@@H](C)CC)N(C)C(=O)C [epoxomicin]
How it was run: as §1

[6] = compound: CCn1cc(-c2ccnc3[nH]c(-c4cccc(CN(C)C)c4)cc23)c(-c2ccc(NC(=O)N(C)C)cc2)n1
How it was run: as §1

[7] = compound: CN(C)CC(=O)Nc1ccc2[nH]c(=O)c3ccccc3c2c1
How it was run: as §1

[8] = compound: CN1C2=C(C3=C1C(=O)N(N=C3)CC4=CC(=CC=C4)N)SC(=C2)S(=O)C
How it was run: as §1

[9] = compound: CN1CCC(CNc2ccc3ncc(-c4cccc(OC(F)(F)F)c4)n3n2)CC1
How it was run: as §1

[10] = compound: CC[C@H](C)N1C=C(C2=C(C=C(C=C21)C3=CN=C(C=C3)N4CCNCC4)C(=O)NCC5=C(C=C(NC5=O)C)C)C
How it was run: as §1

[11] = compound: CCn1c(C(=O)N(C2CC2)C2CC2)cc2c3c(ncn3C)c(Nc3cc(C)n(C)n3)nc21
How it was run: as §1

rosiglitazone = compound: CN(CCOC1=CC=C(C=C1)C[C@H]2C(=O)NC(=O)S2)C3=CC=CC=N3 (racemic) [rosiglitazone]
How it was run: as §1

[12] = compound: CC1=CC=C(C=C1)SC2=C3C=C(SC3=CN=C2)C(=O)N
How it was run: as §1

[13] = compound: CCCS(=O)(=O)Nc1ccc(F)c(C(=O)c2c[nH]c3ncc(Cl)cc23)c1F
How it was run: as §1

volasertib = compound: CC[C@@H]1C(=O)N(C)c2cnc(Nc3ccc(C(=O)N[C@H]4CC[C@H](N5CCN(CC6CC6)CC5)CC4)cc3OC)nc2N1C(C)C [volasertib]
How it was run: as §1

Measured: log2 fold change

AFDN isoform 1 (UniProt P55196)
inactive: [1] 0.035 | [2] 0.083 | [3] 0.03 | Nexturastat A -0.164 | vemurafenib 0.342 | [4] 0.062 | givinostat 0.259 | barasertib -0.045 | [5] -0.019 | epoxomicin 0.064 | [6] -0.075 | [7] -0.069 | [8] 0.111 | [9] 0.062

AHCTF1 isoform 2 (UniProt Q8WYP5)
inactive: [1] -0.11 | [2] 0.027 | [3] -0.119 | Nexturastat A 0.167 | vemurafenib 0.016 | [4] 0.03 | givinostat 0.058 | barasertib 0.025 | [5] 0.027 | [10] 0.065 | epoxomicin -0.034 | [11] -0.056 | [6] 0 | [7] 0.108 | rosiglitazone 0.032 | [8] 0.118 | [9] -0.017

ADNP (UniProt Q9H2P0)
inactive: [1] 0.012 | [3] -0.004 | [4] 0.112 | [10] 0.008 | [6] 0.18 | [9] -0.166

ALAS1 (UniProt P13196)
inactive: [1] 0.145 | [12] 0.016 | Nexturastat A 0.009 | [13] 0.005 | [4] 0.041 | givinostat 0.088 | barasertib -0.02 | [5] 0.131 | volasertib 0.006 | epoxomicin 0.006 | [11] -0.136 | [6] 0.034 | rosiglitazone 0.028 | [9] -0.04

ADGRV1 (UniProt Q8WXG9)
inactive: [1] -0.001 | [3] 0 | Nexturastat A -0.039 | [4] -0.076 | barasertib 0.032 | [5] 0.269 | [10] -0.132 | epoxomicin -0.075 | [6] 0.083 | rosiglitazone 0.042 | [9] -0.077

AKNA (UniProt Q7Z591)
inactive: [1] 0.079 | [12] -0.047 | [13] -0.02 | givinostat 0.177 | volasertib 0.015

ADCY3 (UniProt O60266)
inactive: [1] -0.006 | [2] 0.02 | [12] 0.135 | [3] 0.043 | vemurafenib -0.17 | [13] 0.024 | givinostat 0.007 | volasertib -0.098 | [11] 0.007 | [6] -0.063 | [7] -0.209 | [8] -0.016 | [9] -0.173

AMN1 (UniProt Q8IY45)
inactive: [1] -0.051 | [12] -0.066 | Nexturastat A -0.084 | vemurafenib 0.084 | [13] 0.076 | [4] 0 | givinostat -0.172 | barasertib -0.011 | [5] 0.027 | volasertib -0.155 | [10] -0.001 | epoxomicin -0.04 | [11] -0.078 | [6] -0.178 | [7] -0.189 | rosiglitazone 0.058 | [8] -0.198 | [9] -0.19

ADPRM (UniProt Q3LIE5)
inactive: [1] 0.075 | givinostat 0.049 | barasertib 0.012 | [11] 0.017 | rosiglitazone 0.127

ADD2 isoform 9 (UniProt P35612)
inactive: [1] 0.191 | [2] 0.065 | [12] -0.067 | [13] -0.114 | [4] 0.079 | barasertib 0.047 | volasertib -0.1

ALKBH8 isoform 4 (UniProt Q96BT7)
inactive: [1] -0.038 | [3] -0.193 | Nexturastat A -0.013 | [4] 0 | barasertib 0.007 | [5] 0.107 | epoxomicin -0.001 | [6] -0.2 | rosiglitazone 0.116 | [8] 0.223 | [9] -0.07

ALG6 (UniProt Q9Y672)
inactive: [1] 0.092 | [12] 0.044 | [3] -0.02 | Nexturastat A -0.032 | vemurafenib -0.041 | [13] 0.065 | [4] 0.023 | givinostat 0.055 | barasertib 0.024 | [5] 0.018 | volasertib 0.023 | [10] 0.074 | epoxomicin -0.079 | [11] -0.033 | [6] -0.082 | [7] 0.091 | rosiglitazone 0.057 | [8] -0.064 | [9] -0.16

ADH1A (UniProt P07327)
inactive: [1] 0.03 | [3] 0.011

AMZ2 (UniProt Q86W34)
inactive: [1] -0.025 | [2] 0.08 | [12] 0.048 | Nexturastat A 0.143 | [13] -0.034 | [4] -0.004 | volasertib -0.081 | epoxomicin 0.024 | [8] 0.121

ALDH9A1 (UniProt P49189)
inactive: [1] 0.004 | [2] 0.004 | [12] -0.015 | Nexturastat A -0.125 | vemurafenib 0.026 | [13] 0.005 | [4] 0.18 | givinostat 0.058 | barasertib 0.05 | [5] -0.035 | volasertib 0.009 | [10] 0.111 | epoxomicin -0.011 | [6] -0.005 | [7] 0 | [8] -0.015 | [9] 0.016

ALOX12B (UniProt O75342)
inactive: [1] 0.011 | [2] 0.221 | [12] 0.268 | vemurafenib 0.489 | [13] -0.048 | [4] 0.181 | barasertib -0.17 | [5] 0.107 | volasertib 0.08 | [7] 0.465 | rosiglitazone -0.139 | [8] 0.484

Reprinted from the listing (2 entries):
ADH1A (UniProt P07327)
inactive: [1] 0.03 | [3] 0.011

AMZ2 (UniProt Q86W34)
inactive: [1] -0.025 | [2] 0.08 | [12] 0.048 | Nexturastat A 0.143 | [13] -0.034 | [4] -0.004 | volasertib -0.081 | epoxomicin 0.024 | [8] 0.121

Remaining list, next part

ALDOB (UniProt P05062)
inactive: [1] 0.053 | Nexturastat A -0.062 | epoxomicin -0.059

ALG14 (UniProt Q96F25)
inactive: [2] -0.13 | [12] 0.045 | [3] 0.068 | Nexturastat A -0.479 | vemurafenib -0.053 | [13] 0.052 | [4] -0.131 | givinostat 0.03 | barasertib 0.03 | [5] 0.2 | volasertib 0.11 | [10] -0.077 | epoxomicin 0.382 | [6] -0.215 | [7] 0.062 | [8] -0.124 | [9] 0.443
